Assay results reported in PubChem BioAssay AID1487 (National Center for Advancing Translational Sciences (NCATS), 2009).
Some of the results follow. Shown are side measurements of this screen, not its main read-out; they come without a call. Most of these compounds were active or inconclusive in the main read-out, so they are no random draw. Potencies come from curve fits of mixed quality, noted in brackets.

Assay: qHTS Assay for Modulators of Lamin A Splicing
Conditions: HeLa LMNA splicing GFP/RFP minigene ratio, 48 h
How it was run: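 S3 HeLa stable clones carrying a lamin A-EGFP splicing minigene plus DsRed2 were seeded at 600 cells/well in Opti-MEM with 2% FBS, pin-dosed and incubated 48 h at 37°C. Acumen cytometry (488 nm) gave the GFP/RFP total-intensity ratio.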

[1] = measured here: GFP splicing reporter channel
[2] = measured here: RFP viability control channel

| Structure (SMILES) | AC50 [1] | AC50 [2] |
| --- | --- | --- |
| COC(=O)N/N=C1\CCCc2ccccc21 | 35.5 µM [rising, single point] |  |
| CCC(C)c1ccc(O)c(NC(=O)c2ncn[nH]2)c1 (centres undefined) | 35.5 µM [rising, single point] | 31.6 µM [rising, single point] |
| COCCN(C(=O)CSc1ncc(C(F)(F)F)cc1Cl)c1c(N)n(Cc2ccccc2)c(=O)[nH]c1=O | 3.16 µM [falling, full curve] |  |
| O=C(OCCN1CCOCC1)C1(c2ccccc2)CCCCC1 | 35.5 µM [rising, single point] |  |
| Cc1cc(/C=C(\C#N)C(=O)OCC#N)c(C)n1CC(C)C | 14.1 µM [falling, partial curve] | 15.8 µM [falling, partial curve, poor fit] |
| CCOc1cc(CNCCO)cc(Br)c1OCc1ccc(Cl)cc1Cl | 22.4 µM [falling, single point] | 22.4 µM [falling, partial curve] |
| O=C(Nc1cccc(-c2cn3c(n2)SCC3)c1)c1ccc(Br)o1 |  | 0.355 µM [rising, partial curve, poor fit] |
| O=c1c(-c2nnc(SCc3ccc(Cl)c(Cl)c3)o2)cccn1Cc1ccccc1 |  | 14.1 µM [falling, single point] |
| O=C(c1ccc2c(c1)OCCO2)N(Cc1cccnc1)c1nc2c(F)cc(F)cc2s1 | 0.501 µM [rising, full curve, poor fit] | 35.5 µM [rising, single point] |
| CCn1c(=O)c(=O)[nH]c2cc(C(=O)NC3CCCc4ccccc43)ccc21 (centres undefined) |  | 28.2 µM [rising, single point] |
| Clc1cccc(OCCN2CCNCC2)c1 | 12.6 µM [falling, single point] |  |
| NC(=O)c1c(NC(=O)c2cccs2)sc2c1CCCCCC2 |  | 25.1 µM [rising, single point] |
| Cc1nnc(-c2ccc(Oc3ccc(Cl)cc3)c([N+](=O)[O-])c2)o1 | 12.6 µM [rising, partial curve, poor fit] | 35.5 µM [rising, single point] |
| O=C(C[n+]1cc2ccccc2c2ccccc21)c1ccccc1 |  | 20 µM [rising, single point] |
| N#Cc1nccnc1S(=O)(=O)c1cccs1 | 0.891 µM [falling, partial curve, poor fit] | 35.5 µM [falling, single point] |
| CCCn1c(SCC(=O)N2CCCC(C)C2)nnc1-c1ccccn1 (centres undefined) |  | 11.2 µM [falling, partial curve, poor fit] |
| Cc1cccc(CCNC(=O)CCc2c(C)nc3ncnn3c2C)c1 | 3.55 µM [falling, single point] | 5.01 µM [falling, partial curve, poor fit] |
| COc1ccc(NC(=O)NC23CC4(C)CC(C)(CC(C)(C4)C2)C3)cc1OC |  | 7.08 µM [rising, partial curve, poor fit] |
| CCOc1cc(C(=O)NC)cc(Br)c1OC |  | 6.31 µM [rising, single point] |
| O=C(N/N=C/C=C/c1ccccc1)c1cc2c(ccc3ccccc32)o1 |  | 11.2 µM [falling, partial curve, poor fit] |
| O=C(c1ccco1)N1CCN(CC(O)COc2ccc3oc4ccccc4c3c2)CC1 (centres undefined) | 1.26 µM [rising, partial curve, poor fit] | 25.1 µM [rising, single point] |
| CCn1c2ccccc2c2cc(NC(=O)CSc3nnc(-c4cccc(C)c4)o3)ccc21 |  | 10 µM [rising, partial curve] |
| O=C(NCC1(c2ccccc2)CCCC1)c1ccc(Br)cc1 | 35.5 µM [rising, single point] | 28.2 µM [rising, single point] |
| COc1ccc(-n2nnnc2SCC(=O)Nc2ccc3c(c2)OCCO3)c(OC)c1 | 5.62 µM [rising, partial curve] | 14.1 µM [rising, partial curve] |
| COc1ccccc1NS(=O)(=O)c1cccc(NC(=O)Cc2cccs2)c1 |  | 35.5 µM [rising, partial curve, poor fit] |
| Cc1nn(Cc2ccc(Cl)cc2Cl)c(C)c1NC(=O)c1sc2ccccc2c1Cl |  | 35.5 µM [falling, single point] |
| N=C(c1ccc([N+](=O)[O-])cc1)N1CCCCCC1 |  | 1 µM [falling, full curve] |
| COc1ccc2[nH]cc(CCNc3nc(-c4c(C)noc4C)nc4ccccc34)c2c1 | 22.4 µM [falling, single point] | 25.1 µM [falling, single point] |

| Structure (SMILES) | AC50 [1] | AC50 [2] |
| --- | --- | --- |
| O=c1c(C/C=C/c2ccccc2)c(O)ccn1Cc1ccc(Cl)cc1Cl | 3.55 µM [rising, full curve, poor fit] | 12.6 µM [rising, partial curve] |
| CCN(CC)S(=O)(=O)c1ccc(/C=C/C(=O)Nc2cccc(F)c2)cc1 | 4.47 µM [rising, partial curve] | 8.91 µM [rising, partial curve] |
| O=C(NC1CCCCC1)N(Cc1ccc(F)cc1)Cc1nc2ccccc2c(=O)[nH]1 |  | 0.1 µM [rising, full curve, poor fit] |
| CC(C)(C)n1nnnc1C(c1cccnc1)N1CCN(c2cccc(C(F)(F)F)c2)CC1 (centres undefined) |  | 35.5 µM [rising, single point] |
| Fc1ccccc1C1c2[nH]c3ccccc3c2CCN1Cc1ccoc1 (centres undefined) |  | 35.5 µM [rising, single point] |
| O=C(/C=C/c1ccc(Br)cc1)c1ccc(NC2=NCCCS2)cc1 | 5.01 µM [rising, single point] | 5.62 µM [rising, single point] |
| N/C(=N\OS(=O)(=O)c1ccc2ccccc2c1)c1cccnc1 | 25.1 µM [falling, single point] | 35.5 µM [falling, partial curve, poor fit] |
| O=C1c2ccccc2-c2onc3ccc(NCc4ccco4)c1c23 |  | 12.6 µM [rising, single point] |
| CCCCn1cc(S(=O)(=O)c2ccc(CC)cc2)c(=O)c2cc(F)c(N3CCOCC3)cc21 | 10 µM [falling, partial curve] | 3.98 µM [falling, partial curve, poor fit] |
| COc1cccc(N2CCN(C(=O)c3ccc4nc(N5CCCCC5)sc4c3)CC2)c1 | 11.2 µM [rising, single point] |  |
| COc1ccccc1OCC(=O)OCC(=O)NCCN1C(=O)CSC1=O | 35.5 µM [falling, single point] |  |
| O=C(CNC1CCCC1)Nc1ccc(N2CCCCCC2)cc1 | 0.00316 µM [falling, full curve, poor fit] | 0.0282 µM [falling, full curve] |
| CC(Nc1nc(N2CCN(CCO)CC2)nc2ccccc12)c1ccccc1 (centres undefined) |  | 0.158 µM [rising, full curve, poor fit] |
| CCOc1ccccc1N1CC(O)=C(c2nc3ccccc3s2)C1=N |  | 5.62 µM [rising, single point] |
| COc1ccc(CCNC(=O)CC2SC(=NCc3ccccc3OC)NC2=O)cc1 (centres undefined) | 5.62 µM [rising, partial curve] | 0.1 µM [rising, full curve, poor fit] |
| CN(C)c1ccc(/C=C/c2cc[n+](C)cc2)cc1 | 35.5 µM [falling, single point] | 3.16 µM [rising, single point] |
| Cc1ncsc1C(=O)N1N=C2/C(=C/c3ccccc3)CCCC2C1c1ccccc1 (centres undefined) | 35.5 µM [falling, single point] | 35.5 µM [falling, single point] |
| Cc1ccc(OCCOCCn2cnc3ccccc3c2=O)c([N+](=O)[O-])c1 |  | 17.8 µM [rising, single point] |
| CC1CCCCC1NC(=O)CN1CCN(Cc2ccccc2Cl)C1=O (centres undefined) | 15.8 µM [rising, single point] | 35.5 µM [rising, single point] |
| Cc1cc(C)cc(NS(=O)(=O)c2ccc(NC(=S)NC(=O)c3cccs3)cc2)c1 | 3.98 µM [rising, partial curve, poor fit] | 12.6 µM [rising, partial curve] |
| c1csc(C(c2nnnn2C2CCCC2)N2CCCC3(CCCCC3)C2)c1 (centres undefined) |  | 31.6 µM [rising, single point] |
| CCOc1ccc(NCc2nnc(SCc3ccc(Cl)cc3)n2-c2ccccc2)cc1 |  | 22.4 µM [rising, single point] |
| CCOC(=O)/C(C#N)=C/Nc1cc(C(C)(C)C)sc1C(C)=O |  | 5.62 µM [rising, single point] |
| CCCCN1CCC(n2c(=O)[nH]c3ccccc32)CC1 |  | 0.000794 µM [falling, full curve, poor fit] |
| C=CCNC(=O)/C(C#N)=C/c1c(N(Cc2ccccc2)Cc2ccccc2)nc2ccccn2c1=O | 31.6 µM [rising, single point] | 31.6 µM [rising, single point] |
| CCc1c(C)sc2c1CCN(C(=O)Nc1cc(Cl)c(OC)cc1OC)C2c1ccccc1 (centres undefined) |  | 0.0398 µM [rising, full curve, poor fit] |
| COc1cccc2c1Oc1ncccc1N(C(=O)CCC(=O)NC(C)C)C2 | 0.0355 µM [falling, full curve, poor fit] | 4.47 µM [falling, full curve, poor fit] |

In the list so far, 3 have a nitro group on carbon:

| Structure (SMILES) | AC50 [1] | AC50 [2] |
| --- | --- | --- |
| Cc1nnc(-c2ccc(Oc3ccc(Cl)cc3)c([N+](=O)[O-])c2)o1 | 12.6 µM [rising, partial curve, poor fit] | 35.5 µM [rising, single point] |
| N=C(c1ccc([N+](=O)[O-])cc1)N1CCCCCC1 |  | 1 µM [falling, full curve] |
| Cc1ccc(OCCOCCn2cnc3ccccc3c2=O)c([N+](=O)[O-])c1 |  | 17.8 µM [rising, single point] |
